According to US20200297820A1, “STIMULATION OF HUMAN MEIBOMIAN GLAND FUNCTION” (The Schepens Eye Research Institute, Inc., priority 2013, published 2020):
At least one structure is not confirmed: it was looked up by name or label, or the drawing left a doubt.

What was measured:
[1] = test system: human meibomian gland epithelial cells; assay: Immunoblot of signaling pathways (Akt, FoxO1, ERK, JAK2/STAT5); format: cell-based; settings: preincubation 10 μM for 2 hours, then IGF-1 15 minutes
Protocol: The disclosure turns now to sodium dodecyl sulfate-polyacrylamide gel, electrophoresis, and immunoblots. Cells were directly lysed in Laemmli buffer supplemented with 1% protease inhibitor cocktail (Sigma-Aldrich) and 5% β-mercaptoethanol (Sigma-Aldrich). Lysates were heated at 95° C. for 10 minutes, separated by sodium dodecyl sulfate-polyacrylamide gel electrophoresis on 10% Tris-glycine precast gels, and transferred to polyvinylidene difluoride membranes. Rabbit or mouse antibodies used were specific for phosphorylated Akt (p-Akt), pan-Akt, p-FoxO1, FoxO1, p-JAK2, JAK2, and β-actin; for p-ERK, ERK-2, STAT5, and the precursor form of SREBP-1; and for p-STAT5. Membranes were blocked with 5% bovine serum albumin in Tris-buffered saline containing 0.01% polysorbate 20. All primary antibodies were diluted to 1:1000 in blocking buffer except for p-Akt (1:4000), p-ERK (1:2000), ERK-2 (1:4000), SREBP-1 (1:200), and β-actin (1:10 000). Horseradish peroxidase-conjugated secondary antibodies were goat anti-rabbit IgG and Fc-specific goat anti-mouse IgG diluted to 1:5000. […]
FIGS. 9a, 9b, and 9c illustrate the effects of insulin-like growth factor 1 (IGF-1) and growth hormone (GH) on signaling pathways in human meibomian gland epithelial cells. […] Cell lysates were evaluated on immunoblotting. […]

[2] = test system: immortalized human meibomian gland epithelial cells; assay: LipidTOX green neutral lipid staining (lipid accumulation); format: cell-based; settings: 10^−8 M
Protocol: As an example of these experiments, immortalized human meibomian gland epithelial cells were cultured in the presence or absence of 10% fetal bovine serum. Cells were treated with an ethanol vehicle or azithromycin (10 μg/ml; Santa Cruz Biotechnology) for varying time periods. Cellular morphological appearance was recorded, cells were counted with a hemocytometer, and lipid accumulation was assessed by staining the cells with LipidTOX green neutral lipid stain (Invitrogen, Grand Island, N.Y.), according to reported methods. Staining fluorescent intensities were quantified by using ImageJ (http://rsbweb.nih.gov/ij/index.html). Statistical analyses were performed with Student's t-test (two-tailed, unpaired).
Immortalized human meibomian gland epithelial cells (IHMGECs; passages 20-22) were cultured in the presence or absence of 10% fetal bovine serum. […] Cellular morphological appearance was recorded, cells were counted with a hemocytometer, and lipid accumulation was assessed by staining cells with LipidTOX green neutral lipid stain (Invitrogen Corp). Staining fluorescent intensities were quantified using ImageJ software (http://rsbweb.nih.gov/ij/index.html). […]
Cell numbers were enumerated with a hemocytometer. […] Lipids were then evaluated with high-performance thin-layer chromatography. […] Image data were quantified with ImageJ (http://rsbweb.nib.gov/ij/index.html). […]

SMILES: O=c1cc(N2CCOCC2)oc2c(-c3ccccc3)cccc12 [LY294002]
- inhibition of IGF-1-induced Akt and FoxO1 phosphorylation [1]: blocked

SMILES: C[C@@H]1C[C@H]2[C@@H]3CCC4=CC(=O)C=C[C@]4(C)[C@@]3(F)[C@@H](O)C[C@]2(C)[C@@]1(O)C(=O)CO [dexamethasone]
- lipid accumulation [2]: marked lipid accumulation
